Data on 1 sequence can be found in paper PMC3146519, “Highly Efficient Production of Soluble Proteins from Insoluble Inclusion Bodies by a Two-Step-Denaturing and Refolding Method”.

The exact form of at least one protein or probe is not confirmed. Negatives hold for the conditions tested.

The subject of this series is NRSF/REST DBD (unfolded). Briefly: EMSA. The note with it: unfolded (denatured) protein control, 0.1 mM ZnCl2; 10 mM Tris pH 7.0, 0.1 mM ZnCl2, 20 ul, 30 min at room temperature; 5% native PAGE, EtBr stain; recombinant protein; label: none (EtBr stain).

As for “TTCAGCACCACGGACAGCGCC (double strand) [NRSE/RE1 dsDNA]”, the binding result is “no binding”.
